Data from PubChem BioAssay AID2551 (National Center for Advancing Translational Sciences (NCATS), 2010).
Screen size: about 310,000 compounds; about 17,000 (5.5%) were called active. The inconclusive results got no clear call from the source; some entries with a clear call stand among them for comparison. Calls come from the whole dose curve; as a rule, active = well fitted inhibition curve with a large enough effect; inconclusive = small, poorly fitted or top-dose-only effect, or effect the other way; inactive = no such curve, though single readings can be large or run the other way. Potencies of inconclusive entries are doubtful fits and often do not repeat.

Chains of the proteins cited; added tags and fusions are not shown. Lines headed by an entry give the natural chain unless they say otherwise; changes in a name come on top.
UniProt P51450: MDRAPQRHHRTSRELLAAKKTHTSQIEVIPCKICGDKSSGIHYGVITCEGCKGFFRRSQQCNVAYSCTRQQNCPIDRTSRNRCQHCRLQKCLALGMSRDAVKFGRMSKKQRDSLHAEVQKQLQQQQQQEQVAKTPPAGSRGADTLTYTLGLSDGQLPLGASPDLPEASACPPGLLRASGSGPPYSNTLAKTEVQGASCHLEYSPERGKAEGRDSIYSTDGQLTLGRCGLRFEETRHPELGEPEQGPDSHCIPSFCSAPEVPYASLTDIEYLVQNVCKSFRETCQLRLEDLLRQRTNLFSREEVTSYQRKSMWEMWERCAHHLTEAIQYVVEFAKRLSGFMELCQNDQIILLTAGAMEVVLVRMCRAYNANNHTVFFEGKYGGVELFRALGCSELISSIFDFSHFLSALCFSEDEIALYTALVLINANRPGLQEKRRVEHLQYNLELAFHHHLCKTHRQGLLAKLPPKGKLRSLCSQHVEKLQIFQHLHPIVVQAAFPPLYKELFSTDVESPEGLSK

Each compound was assayed against Nuclear receptor ROR-gamma (Mus musculus) (UniProt P51450) (assay: qHTS for inhibitors of ROR gamma transcriptional activity). Details: Drosophila S2 Gal4-RORgamma UAS-luciferase reporter, 20 h; activity change, negative = inhibition: at 53.6 µM (top of the series).
Summary of the method: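 Luciferase reporter read in Schneider cells carrying Gal4-RORγ (mouse) and UAS-Photinus luciferase; cells given compound 1 h before 700 uM copper sulfate induction, then incubated 20 h at ambient temperature.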
% is set by controls: 0 for no effect and ±100 for the full control effect; potency is the fitted concentration of half-maximal effect.
Note: nearly all actives have a fitted effect of over 60% in size.

| Structure (SMILES) | Potency | activity change, negative = inhibition |
| --- | --- | --- |
| CCOC(=O)Cn1nc(-c2ccc(C)cc2)ccc1=O | inconclusive: 31.6 µM [activator, single point] |  |
| CCOC(=O)N/N=C/c1c(C)nn(-c2ccccc2Cl)c1Cl | inconclusive: 0.0891 µM [activator, full curve] |  |
| CN1C(=O)/C(=C/c2ccc(OCc3ccc(F)cc3)cc2)NC1=S | inconclusive: 22.4 µM [inhibitor, single point] |  |
| COc1ccc(NC(=S)Nc2cccc3ccccc23)cc1OC | inconclusive: 17.8 µM [inhibitor, single point] |  |
| O=C(c1ccco1)N1CCN(c2ncnc3c2oc2ccccc23)CC1 | inconclusive: 8.91 µM [activator, partial curve] |  |
| COc1ccccc1N1CCN(C(=O)COc2ccc(S(=O)(=O)NC(C)(C)C)cc2)CC1 | inconclusive: 15.8 µM [activator, single point] |  |
| CCc1cccc(NC(=O)C2CCN(S(=O)(=O)c3ccc4c(c3)CC(C)N4C(C)=O)CC2)c1 (stereo not drawn) | inconclusive: 12.6 µM [activator, partial curve] |  |
| Cc1ccccc1CN(C)C(=O)CNC(=O)c1ccc2ccccc2c1 |  | inactive: 33.1% |
| O=C(CCCCCn1c(=S)[nH]c2ccccc2c1=O)N1CCOCC1 | inconclusive: 6.31 µM [inhibitor, full curve] |  |
| CN(C)CCCN=c1cc(-c2ccccc2)oc2ccc(Cl)cc12 | inconclusive: 22.4 µM [inhibitor, single point] |  |
| Cc1cc(C)cc(Oc2nc(C(F)(F)F)nc3ccccc23)c1 | inconclusive: 28.2 µM [activator, single point] |  |
| CC(C)CC(=O)NC(=S)NCc1ccccc1 | active: 5.01 µM |  |
| CCOC(=O)c1c(C)nc2c(c1C)c(=O)oc1ccccc12 | inconclusive: 2.24 µM [activator, partial curve] |  |
| O=C(COC(=O)C1CC2C=CC1C2)Nc1cccc(S(=O)(=O)N2CCOCC2)c1 (stereo not drawn) | inconclusive: 17.8 µM [activator, partial curve, poor fit] |  |
| COc1ncc2nc(-c3ccc(F)cc3)c(=O)n(C3CC3)c2n1 |  | inactive: -24.9% |
| O=C(c1cccs1)N1CCC(c2nc3c(nnn3Cc3ccccc3)c(=O)[nH]2)CC1 | inconclusive: 0.005 µM [inhibitor, full curve, poor fit] |  |
| Cn1c(=O)[nH]c(=O)c2c1nc(N1CCN(c3ccccc3)CC1)n2CCSc1ncccn1 | inconclusive: 6.31 µM [inhibitor, single point] |  |
| Cc1cccc(N2CCN(C(=O)c3ccc(Cl)c(S(=O)(=O)NCc4ccco4)c3)CC2)c1C | inconclusive: 35.5 µM [inhibitor, single point] |  |

An excerpt from above in order of count of non-hydrogen atoms, falling:

| Structure (SMILES) | Potency | activity change, negative = inhibition |
| --- | --- | --- |
| COc1ccccc1N1CCN(C(=O)COc2ccc(S(=O)(=O)NC(C)(C)C)cc2)CC1 | inconclusive: 15.8 µM [activator, single point] |  |
| CCOC(=O)c1c(C)nc2c(c1C)c(=O)oc1ccccc12 | inconclusive: 2.24 µM [activator, partial curve] |  |
| CC(C)CC(=O)NC(=S)NCc1ccccc1 | active: 5.01 µM |  |
